Measurements reported in PubChem BioAssay AID1671195 (Yale University, 2021).
Screen: 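Genes whose knockdown alters LDL uptake in liver cancer cells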 (primary screen). System: human Huh7 hepatoma cells. Reagents: siRNA pool against human genes, 18 nM. Timing: about 2 to 2.5 days of knockdown, then 8 h LDL uptake. Treatment: DiI-labelled LDL at 30 µg/ml for 8 h, in lipoprotein-deficient serum medium. Measurement: 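Per-cell DiI-LDL intensity by automated imaging; well means scaled to the plate median and given as a robust z-score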. Scale: robust z-score: higher = more LDL uptake after knockdown. Rule for the call: 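a gene counts as active if at least two replicate z-scores exceed ±2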.
Here is one part, drawn at random, of about 22,000 deposited reagents. About 1,510 of them (6.9%) count as active. 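Active includes knockdowns raising or lowering LDL uptake; positive z-scores mean more uptake, negative mean less.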 Unmarked entries are inactive. The numbers tell different reagents against one gene apart. No sequences are given here.

Target gene	reagent no.	robust z-score, replicate 1	robust z-score, replicate 2	robust z-score, replicate 3
FCGRT (Fc gamma receptor and transporter)	1	-1.73	-2.28	-1.82
MTIF2 (mitochondrial translational initiation factor 2)	1	0.094	-0.335	1.08
PNP (purine nucleoside phosphorylase)	1	0.973	0.751	0.953
SIGIRR (single Ig and TIR domain containing)	1	-0.694	-0.855	-0.595
FAT4 (FAT atypical cadherin 4)	1	1.59	0.841	1.49
FAT4 (FAT atypical cadherin 4)	2	0.272	0.144	0.14
MIAT (myocardial infarction associated transcript)	1	-0.621	-0.681	-0.564
ITIH1 (inter-alpha-trypsin inhibitor heavy chain 1)	1	-0.384	-0.96	-0.504
RPL28 (ribosomal protein L28)	1	1.18	0.831	1.82
ZNF668 (zinc finger protein 668)	1	-0.00259	0.526	-0.0251
DHRSX (dehydrogenase/reductase X-linked)	1	1.96	1.29	1.95
KIAA0753	1	0.185	0.563	-1.35
XRCC1 (X-ray repair cross complementing 1)	1	0.599	0.845	1.17
EXOSC7 (exosome component 7)	1	2.24 (active)	3.13	1.15
BRD4 (bromodomain containing 4)	1	0.436	0.795	0.463
DDHD2 (DDHD domain containing 2)	1	0.177	-0.323	0.563
NBPF3 (NBPF member 3)	1	-0.203	-0.425	-0.139
LIN28B (lin-28 RNA binding posttranscriptional regulator B)	1	-0.103	0.943	-0.605
ATG13 (autophagy related 13)	1	-0.167	-0.455	1.42
LOC133185 (retired record)	1	-1.39	0.0196	-1.01
LRCH1	1	2.06	-1.02	0.977
LOC388924 (retired record)	1	-0.263	-0.269	-0.222
RASGRF1 (Ras protein specific guanine nucleotide releasing factor 1)	1	-0.255	0.167	0.499
COL24A1 (collagen type XXIV alpha 1 chain)	1	2.61 (active)	2.78	3.14
ADIRF (adipogenesis regulatory factor)	1	-0.429	-0.837	0.423
TP53TG3 (TP53 target 3)	1	-1.03	0.138	-0.477
CSNK1E (casein kinase 1 epsilon)	1	-0.226	0.875	-0.0705
LOC441610 (retired record)	1	-0.361	0.0312	0.099
SIGLEC1 (sialic acid binding Ig like lectin 1)	1	1.92	-0.0368	-0.0118
RASSF9 (Ras association domain family member 9)	1	-2.12 (active)	-1.98	-1.97
PSMD3 (proteasome 26S subunit, non-ATPase 3)	1	1.1	1.88	1.04
LOC389469 (retired record)	1	-0.199	0.0956	-0.194
ZP3 (zona pellucida glycoprotein 3)	1	0.335	0.957	1.57
ADAM10 (ADAM metallopeptidase domain 10)	1	-0.217	-2.64	-0.556
LINC01591 (long independently transcribed non-coding RNA 1591)	1	1.05	1.87	1.21
CLEC20A (C-type lectin domain containing 20A)	1	0.714	0.421	0.509
CELSR1 (cadherin EGF LAG seven-pass G-type receptor 1)	1	0.523	0.529	0.498
INAVA (innate immunity activator)	1	-0.625	1	-1.08
ENPP6 (ectonucleotide pyrophosphatase/phosphodiesterase 6)	1	0.854	1.11	2.2
LOC387701 (retired record)	1	-1.29	-0.0844	-1.55
LOC402028 (retired record)	1	-0.25	0.489	0.227
TOR1A (torsin family 1 member A)	1	-0.83	-0.6	-0.645
LOC441470 (retired record)	1	0.85	0.281	0.178
CDK11A (cyclin dependent kinase 11A)	1	-0.139	-0.432	0.619
TAFA5 (TAFA chemokine like family member 5)	1	1.18	-0.293	1.85
ADH1B (alcohol dehydrogenase 1B (class I), beta polypeptide)	1	-0.214	0.11	0.433
GRAMD2A (GRAM domain containing 2A)	1	0.0706	0.21	-0.411
ESM1 (endothelial cell specific molecule 1)	1	0.592	0.243	2.98
GPX4 (glutathione peroxidase 4)	1	-2.86 (active)	-2.46	-2.03
ANKRD30A (ankyrin repeat domain 30A)	1	0.907	0.274	0.461
LRMDA (leucine rich melanocyte differentiation associated)	1	1.22	1.26	1.8
SPTY2D1 (SPT2 chromatin protein domain containing 1)	1	0.397	0.99	0.771
SEPTIN2 (septin 2)	1	2.04	-0.301	0.289
EHMT2 (euchromatic histone lysine methyltransferase 2)	1	0.408	-0.13	0.0769
NLRP3 (NLR family pyrin domain containing 3)	1	0.0479	-1.03	-0.8
RBM17 (RNA binding motif protein 17)	1	2.56 (active)	2.01	2.43
HERC6	1	0.169	1.91	0.413
LOC390898 (retired record)	1	-0.354	0.123	-0.0442
DXO (decapping exoribonuclease)	1	-1.67 (active)	-2.7	-1.96
TAS2R20 (taste 2 receptor member 20)	1	-0.0906	0.0977	0.359
FRAS1 (Fraser extracellular matrix complex subunit 1)	1	-0.725	-0.492	-0.56
ANKRD54 (ankyrin repeat domain 54)	1	-1.86	-1.8	-0.876
ARFGEF3 (ARFGEF family member 3)	1	0.999	0.652	0.27
ASPRV1 (aspartic peptidase retroviral like 1)	1	-1.53	-1.69	-2.29
LOC387630 (retired record)	1	0.716	0.569	0.689
KIF2A (kinesin family member 2A)	1	1.25	2.02	0.694
BHMT2 (betaine--homocysteine S-methyltransferase 2)	1	0.0851	0.741	0.418
CYB5R4 (cytochrome b5 reductase 4)	1	0.668	-0.259	0.568

Hits, among the entries above:
Target gene	reagent no.	robust z-score, replicate 1	robust z-score, replicate 2	robust z-score, replicate 3
EXOSC7 (exosome component 7)	1	2.24 (active)	3.13	1.15
COL24A1 (collagen type XXIV alpha 1 chain)	1	2.61 (active)	2.78	3.14
RASSF9 (Ras association domain family member 9)	1	-2.12 (active)	-1.98	-1.97
GPX4 (glutathione peroxidase 4)	1	-2.86 (active)	-2.46	-2.03
RBM17 (RNA binding motif protein 17)	1	2.56 (active)	2.01	2.43
DXO (decapping exoribonuclease)	1	-1.67 (active)	-2.7	-1.96
